Source: US12485116B2, “Pharmaceutical composition for preventing or treating epidemic RNA viral infectious disease” (priority 2020, dated 2025)
Some results were stated once for a whole list of compounds, not compound by compound.

Tested on: SARS-CoV-2
Assay: Antiviral efficacy by RNA copy numbers (qRT-PCR), co-treatment, Calu-3 human lung cell line
Settings: 24 hpi and 48 hpi, Calu-3 cells

Structure (SMILES)	inhibition at non-cytotoxic concentrations
C[C@H]1[C@H](OC(=O)CCC(=O)O)O[C@@H]2O[C@@]3(C)CC[C@H]4[C@H](C)CC[C@@H]1[C@@]24OO3 [artesunate]	more than 90%
COc1ccc2nc3cc(Cl)ccc3c(Nc3cc(CN4CCCC4)c(O)c(CN4CCCC4)c3)c2n1 [pyronaridine]	more than 90%
